Some of the results follow. The data scatter; read single values as rough.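 Many melting curves are irregular; where none melted, Tm was taken as 64 °C.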

Protein sequences, listed by entry. Tags and fused reporters are not part of them. Lines headed by an entry give the natural chain unless they say otherwise; changes in a name come on top.
UniProt P07910: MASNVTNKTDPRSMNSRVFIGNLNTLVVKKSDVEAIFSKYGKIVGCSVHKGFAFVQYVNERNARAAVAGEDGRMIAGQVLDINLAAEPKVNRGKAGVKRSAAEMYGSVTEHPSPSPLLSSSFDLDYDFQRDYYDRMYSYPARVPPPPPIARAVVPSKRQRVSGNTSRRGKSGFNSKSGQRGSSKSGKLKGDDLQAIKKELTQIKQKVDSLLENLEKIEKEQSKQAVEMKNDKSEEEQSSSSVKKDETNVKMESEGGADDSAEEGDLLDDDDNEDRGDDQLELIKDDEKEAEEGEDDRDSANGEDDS
UniProt P16152: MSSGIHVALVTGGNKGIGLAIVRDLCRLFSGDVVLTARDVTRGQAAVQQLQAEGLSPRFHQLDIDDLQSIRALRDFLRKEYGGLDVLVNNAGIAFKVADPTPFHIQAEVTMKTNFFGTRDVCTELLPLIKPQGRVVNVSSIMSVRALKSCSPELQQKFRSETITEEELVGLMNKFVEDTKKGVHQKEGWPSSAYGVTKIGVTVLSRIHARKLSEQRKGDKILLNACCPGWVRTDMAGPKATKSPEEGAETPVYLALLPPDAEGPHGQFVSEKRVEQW
UniProt P08240: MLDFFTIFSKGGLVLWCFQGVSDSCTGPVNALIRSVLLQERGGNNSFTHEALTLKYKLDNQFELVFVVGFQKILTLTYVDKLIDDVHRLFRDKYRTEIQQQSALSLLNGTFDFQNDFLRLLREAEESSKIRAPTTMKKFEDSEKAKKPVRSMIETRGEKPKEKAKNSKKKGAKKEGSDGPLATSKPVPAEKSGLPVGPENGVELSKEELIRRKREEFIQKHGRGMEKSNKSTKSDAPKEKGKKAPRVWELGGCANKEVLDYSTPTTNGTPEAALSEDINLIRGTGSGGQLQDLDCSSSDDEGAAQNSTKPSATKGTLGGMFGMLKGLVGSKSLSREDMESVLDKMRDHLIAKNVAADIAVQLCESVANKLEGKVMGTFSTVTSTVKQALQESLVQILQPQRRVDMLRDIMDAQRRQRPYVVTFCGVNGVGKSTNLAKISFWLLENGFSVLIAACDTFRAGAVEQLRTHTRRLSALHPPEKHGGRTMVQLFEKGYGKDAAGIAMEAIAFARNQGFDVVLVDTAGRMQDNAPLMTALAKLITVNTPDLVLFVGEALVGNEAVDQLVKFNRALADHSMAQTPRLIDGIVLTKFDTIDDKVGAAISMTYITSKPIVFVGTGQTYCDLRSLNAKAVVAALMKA
UniProt P16070: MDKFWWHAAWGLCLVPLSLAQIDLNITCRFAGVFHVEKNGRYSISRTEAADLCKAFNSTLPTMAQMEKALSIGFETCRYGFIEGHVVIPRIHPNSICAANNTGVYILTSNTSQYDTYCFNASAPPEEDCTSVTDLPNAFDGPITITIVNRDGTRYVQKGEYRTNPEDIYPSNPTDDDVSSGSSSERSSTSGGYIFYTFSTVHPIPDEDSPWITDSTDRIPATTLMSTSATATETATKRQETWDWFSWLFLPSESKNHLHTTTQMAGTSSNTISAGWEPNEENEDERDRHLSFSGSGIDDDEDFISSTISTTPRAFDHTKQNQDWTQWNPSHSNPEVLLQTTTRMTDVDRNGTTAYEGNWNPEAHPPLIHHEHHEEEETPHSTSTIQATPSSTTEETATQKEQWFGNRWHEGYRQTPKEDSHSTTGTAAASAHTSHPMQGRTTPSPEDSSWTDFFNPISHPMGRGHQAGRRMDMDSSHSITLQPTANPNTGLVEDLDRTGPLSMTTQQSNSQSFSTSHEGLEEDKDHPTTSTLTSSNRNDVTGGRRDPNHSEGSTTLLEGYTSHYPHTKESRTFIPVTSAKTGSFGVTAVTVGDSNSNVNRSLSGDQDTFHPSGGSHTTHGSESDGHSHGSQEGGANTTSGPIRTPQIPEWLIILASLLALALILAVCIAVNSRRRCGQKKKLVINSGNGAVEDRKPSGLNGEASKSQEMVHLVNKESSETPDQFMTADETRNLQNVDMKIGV
UniProt P08138: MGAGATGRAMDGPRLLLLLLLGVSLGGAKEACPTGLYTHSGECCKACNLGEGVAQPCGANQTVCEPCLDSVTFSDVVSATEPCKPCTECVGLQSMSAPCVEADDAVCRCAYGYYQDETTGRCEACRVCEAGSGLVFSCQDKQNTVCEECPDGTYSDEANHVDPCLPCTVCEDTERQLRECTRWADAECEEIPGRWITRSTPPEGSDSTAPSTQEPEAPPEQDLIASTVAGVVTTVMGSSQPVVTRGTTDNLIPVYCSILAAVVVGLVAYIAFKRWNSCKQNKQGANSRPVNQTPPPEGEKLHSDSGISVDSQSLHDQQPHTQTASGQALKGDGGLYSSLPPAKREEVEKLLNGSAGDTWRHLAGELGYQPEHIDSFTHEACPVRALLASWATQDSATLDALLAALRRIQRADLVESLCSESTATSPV
UniProt P11021: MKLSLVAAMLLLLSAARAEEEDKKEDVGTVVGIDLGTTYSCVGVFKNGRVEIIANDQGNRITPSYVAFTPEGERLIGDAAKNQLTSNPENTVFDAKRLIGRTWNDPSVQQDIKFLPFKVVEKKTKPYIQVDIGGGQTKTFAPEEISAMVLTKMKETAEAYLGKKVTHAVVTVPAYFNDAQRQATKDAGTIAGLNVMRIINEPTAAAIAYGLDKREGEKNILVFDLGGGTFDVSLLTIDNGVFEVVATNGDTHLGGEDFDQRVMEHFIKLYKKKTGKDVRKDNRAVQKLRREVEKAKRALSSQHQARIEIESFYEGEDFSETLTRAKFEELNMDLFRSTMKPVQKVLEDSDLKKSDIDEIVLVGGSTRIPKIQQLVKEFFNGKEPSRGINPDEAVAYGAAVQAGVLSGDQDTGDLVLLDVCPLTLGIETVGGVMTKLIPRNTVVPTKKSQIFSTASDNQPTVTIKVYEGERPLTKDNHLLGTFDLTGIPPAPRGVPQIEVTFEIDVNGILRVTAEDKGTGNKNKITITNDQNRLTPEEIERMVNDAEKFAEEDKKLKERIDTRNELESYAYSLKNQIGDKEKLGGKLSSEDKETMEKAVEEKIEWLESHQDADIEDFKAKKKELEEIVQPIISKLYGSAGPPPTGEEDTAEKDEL
UniProt P10746: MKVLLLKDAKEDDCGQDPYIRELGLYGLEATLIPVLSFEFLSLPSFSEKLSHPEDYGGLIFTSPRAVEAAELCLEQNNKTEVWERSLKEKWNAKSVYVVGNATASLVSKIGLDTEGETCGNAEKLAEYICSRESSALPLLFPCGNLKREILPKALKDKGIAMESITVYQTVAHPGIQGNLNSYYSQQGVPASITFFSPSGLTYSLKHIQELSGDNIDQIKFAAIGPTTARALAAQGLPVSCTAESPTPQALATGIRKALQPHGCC
UniProt P14735, whole entry: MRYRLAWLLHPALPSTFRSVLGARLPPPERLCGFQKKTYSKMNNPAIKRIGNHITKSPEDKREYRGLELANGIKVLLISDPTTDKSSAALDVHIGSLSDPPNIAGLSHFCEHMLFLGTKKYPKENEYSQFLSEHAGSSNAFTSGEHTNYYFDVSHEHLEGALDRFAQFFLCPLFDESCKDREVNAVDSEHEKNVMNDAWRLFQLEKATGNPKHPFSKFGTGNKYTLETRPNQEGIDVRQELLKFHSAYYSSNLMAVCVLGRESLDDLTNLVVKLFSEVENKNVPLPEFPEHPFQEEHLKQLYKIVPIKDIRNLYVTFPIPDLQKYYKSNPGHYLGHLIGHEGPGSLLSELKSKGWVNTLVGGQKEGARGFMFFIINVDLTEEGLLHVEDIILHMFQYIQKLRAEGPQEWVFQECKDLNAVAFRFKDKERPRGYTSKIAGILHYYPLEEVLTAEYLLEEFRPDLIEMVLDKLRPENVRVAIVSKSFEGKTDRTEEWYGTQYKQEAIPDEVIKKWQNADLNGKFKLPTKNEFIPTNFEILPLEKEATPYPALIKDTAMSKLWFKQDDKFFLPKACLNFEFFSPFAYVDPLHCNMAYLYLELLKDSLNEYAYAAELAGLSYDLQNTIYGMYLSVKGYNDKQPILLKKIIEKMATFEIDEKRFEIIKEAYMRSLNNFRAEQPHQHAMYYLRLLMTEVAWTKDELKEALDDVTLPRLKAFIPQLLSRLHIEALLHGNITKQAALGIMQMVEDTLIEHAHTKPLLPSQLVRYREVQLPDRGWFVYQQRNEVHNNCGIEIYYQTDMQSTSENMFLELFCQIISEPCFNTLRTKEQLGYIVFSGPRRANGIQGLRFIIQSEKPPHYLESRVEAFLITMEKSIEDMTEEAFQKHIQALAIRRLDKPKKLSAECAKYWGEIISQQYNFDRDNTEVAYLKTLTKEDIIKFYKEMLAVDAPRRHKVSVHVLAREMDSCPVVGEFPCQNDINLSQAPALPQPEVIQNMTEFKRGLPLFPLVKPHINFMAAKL
UniProt P07108: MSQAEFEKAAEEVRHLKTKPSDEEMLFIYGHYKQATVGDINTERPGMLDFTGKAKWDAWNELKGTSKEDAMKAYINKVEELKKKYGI
UniProt P16220: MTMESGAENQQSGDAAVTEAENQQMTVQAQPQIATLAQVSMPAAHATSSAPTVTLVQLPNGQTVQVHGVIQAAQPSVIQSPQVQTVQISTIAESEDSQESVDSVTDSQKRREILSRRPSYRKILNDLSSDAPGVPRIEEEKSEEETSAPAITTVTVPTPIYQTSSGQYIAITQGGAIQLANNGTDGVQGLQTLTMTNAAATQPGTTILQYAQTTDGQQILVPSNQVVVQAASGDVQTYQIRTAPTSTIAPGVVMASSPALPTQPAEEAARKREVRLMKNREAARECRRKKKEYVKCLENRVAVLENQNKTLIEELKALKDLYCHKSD
UniProt P10321, whole entry: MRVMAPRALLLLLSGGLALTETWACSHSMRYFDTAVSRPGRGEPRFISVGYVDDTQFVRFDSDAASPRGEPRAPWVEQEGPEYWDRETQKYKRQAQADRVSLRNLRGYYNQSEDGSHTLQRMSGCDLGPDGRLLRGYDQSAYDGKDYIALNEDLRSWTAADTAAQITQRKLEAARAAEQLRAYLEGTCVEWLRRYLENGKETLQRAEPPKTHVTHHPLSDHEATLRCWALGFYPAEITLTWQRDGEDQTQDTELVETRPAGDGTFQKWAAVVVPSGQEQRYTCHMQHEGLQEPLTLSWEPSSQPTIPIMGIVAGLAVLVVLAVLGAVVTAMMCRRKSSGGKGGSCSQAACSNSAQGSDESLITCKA
UniProt P0C870: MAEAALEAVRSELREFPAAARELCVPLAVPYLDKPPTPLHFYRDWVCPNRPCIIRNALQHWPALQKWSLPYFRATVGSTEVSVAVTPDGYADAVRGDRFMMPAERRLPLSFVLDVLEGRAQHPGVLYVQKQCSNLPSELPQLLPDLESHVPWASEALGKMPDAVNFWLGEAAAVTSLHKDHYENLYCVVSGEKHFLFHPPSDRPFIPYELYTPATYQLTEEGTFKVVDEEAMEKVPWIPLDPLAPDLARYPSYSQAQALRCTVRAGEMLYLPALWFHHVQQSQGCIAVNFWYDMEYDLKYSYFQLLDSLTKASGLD
UniProt P12235: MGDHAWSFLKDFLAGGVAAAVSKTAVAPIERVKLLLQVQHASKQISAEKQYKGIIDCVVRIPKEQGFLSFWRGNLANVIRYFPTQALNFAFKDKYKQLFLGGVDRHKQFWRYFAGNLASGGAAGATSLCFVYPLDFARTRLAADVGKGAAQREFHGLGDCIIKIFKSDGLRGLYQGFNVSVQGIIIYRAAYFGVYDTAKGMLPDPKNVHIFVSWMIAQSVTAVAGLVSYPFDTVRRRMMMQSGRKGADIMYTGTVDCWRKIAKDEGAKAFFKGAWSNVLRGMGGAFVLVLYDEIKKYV
UniProt P11217: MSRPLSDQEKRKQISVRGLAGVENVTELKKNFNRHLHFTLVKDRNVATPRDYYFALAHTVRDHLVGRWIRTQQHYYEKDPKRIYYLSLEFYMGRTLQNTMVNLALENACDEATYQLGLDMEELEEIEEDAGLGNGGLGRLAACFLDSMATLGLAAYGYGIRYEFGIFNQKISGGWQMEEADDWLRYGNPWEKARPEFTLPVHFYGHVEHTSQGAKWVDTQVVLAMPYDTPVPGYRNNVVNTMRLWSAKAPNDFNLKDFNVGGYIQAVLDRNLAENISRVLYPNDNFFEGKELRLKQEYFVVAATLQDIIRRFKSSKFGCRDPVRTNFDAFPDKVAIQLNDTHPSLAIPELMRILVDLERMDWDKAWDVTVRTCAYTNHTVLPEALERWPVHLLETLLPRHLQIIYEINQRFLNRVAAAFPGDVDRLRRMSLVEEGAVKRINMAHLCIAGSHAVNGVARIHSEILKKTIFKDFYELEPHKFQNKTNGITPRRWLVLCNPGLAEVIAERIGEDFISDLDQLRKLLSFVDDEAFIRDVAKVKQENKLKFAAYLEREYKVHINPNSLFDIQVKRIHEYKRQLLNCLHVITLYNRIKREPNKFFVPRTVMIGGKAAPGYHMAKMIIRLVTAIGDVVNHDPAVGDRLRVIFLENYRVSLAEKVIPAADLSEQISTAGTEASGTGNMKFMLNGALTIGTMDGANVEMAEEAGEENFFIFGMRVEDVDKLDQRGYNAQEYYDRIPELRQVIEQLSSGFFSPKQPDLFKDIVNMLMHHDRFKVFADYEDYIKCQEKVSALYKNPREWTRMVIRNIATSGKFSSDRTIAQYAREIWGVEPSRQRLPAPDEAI

Compound in the test: CCc1cnccc1C(=O)Nc1cc2c(cc1F)NC(=O)CC2
Briefly: melting temperature shift (DMSO Tm minus MBE1-treated Tm) in cellular thermal proteome profiling; higher = less thermal stabilization by MBE1 (negative = stabilized by MBE1). The conditions noted are these: A375; MBE1 concentration: 1 uM.
As to NFIC (UniProt P08651), the melting temperature shift was -3.7 °C. Under XRCC5 (UniProt P13010) stands -0.147 °C; under EEF2 (UniProt P13639), -0.904 °C. Under COX5B (UniProt P10606) stands -3.12 °C; under ARAF (UniProt P10398), 2.01 °C. Under UniProt P16885 stands -2.1 °C; under HNRNPC (UniProt P07910), -0.464 °C; under CBR1 (UniProt P16152), -0.295 °C. As to UniProt P19022, the melting temperature shift was -3.03 °C. On to RPS17 (UniProt P08708), for which the melting temperature shift amounted to 0.25 °C. With SRPRA (UniProt P08240), the melting temperature shift turned out to be 0.421 °C. With SLC25A6 (UniProt P12236), the melting temperature shift was -0.287 °C.

Turning to CD44 (UniProt P16070), the melting temperature shift was found to be 0 °C. On to UniProt P17535, for which the melting temperature shift was -3.96 °C. Next, CALM1 (UniProt P0DP23): -4.64 °C; UniProt P08138: -3.14 °C; HSPA5 (UniProt P11021): -0.421 °C.

As to UROS (UniProt P10746), the melting temperature shift is -0.202 °C. With PVR (UniProt P15151), the melting temperature shift was 0 °C. Take IDE (UniProt P14735): the melting temperature shift was -0.33 °C. CEBPB (UniProt P17676): the melting temperature shift was -0.78 °C. For GUSB (UniProt P08236), the melting temperature shift is -3.64 °C. With CYBA (UniProt P13498), the melting temperature shift came out at 0.402 °C. As to DBI (UniProt P07108), the melting temperature shift was -3.55 °C. With UniProt P16220, the melting temperature shift was -2.06 °C.

On to Q95604 (UniProt P10321), for which the melting temperature shift is -3.34 °C. Next, UniProt P0C870: 1.35 °C; UQCRH (UniProt P07919): -5.44 °C. With TCP1 (UniProt P17987), the melting temperature shift was -0.0671 °C. Under SNRPA1 (UniProt P09661) stands 0.782 °C. For SLC25A4 (UniProt P12235), the melting temperature shift was 1.95 °C. Under UniProt P13612 stands 1.34 °C; under UniProt P17066, -1.21 °C; under CAPN2 (UniProt P17655), -0.684 °C. Next, ALAD (UniProt P13716): -3.33 °C; UniProt P11217: 0.409 °C.

Values taken from the supplement of paper PMC12595434, “Development of retinoid nuclear receptor pathway antagonists through targeting aldehyde dehydrogenase 1A3” (iScience, 2025).
